Assay results reported in the supplement of paper PMC7661543.
Differences between knockout arms are mostly noise.

Test system: BT-20
Assay: relative cell number vs DMSO control (72 h) (% of DMSO); higher = less growth inhibition (more cells)
Experimental: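 QMAP-Seq: a pool of 5 breast cancer cell lines (ZR-75-1, SKBR3, HCC-38, MDA-MB-231, BT-20), each carrying 12 doxycycline-inducible Cas9 sgRNA perturbations (11 knockouts plus non-targeting sgNT), was treated with compounds for 72 h at four 10-fold doses (10 nM-10 uM or 1 nM-1 uM range). Barcodes were amplified and sequenced, and cell number was interpolated from 293T spike-in standard curves. The result is expressed as % of the median of DMSO wells. Two biological replicates.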

Cc1ccc(F)c(NC(=O)Nc2ccc(-c3cccc4[nH]nc(N)c34)cc2)c1 [Linifanib]
Settings	relative cell number
sgRNA knockout: sgATF3, 10 nM	84.6
sgRNA knockout: sgATF3, 100 nM	111
sgRNA knockout: sgATF3, 1000 nM	111
sgRNA knockout: sgATF3, 10000 nM	54.9
sgRNA knockout: sgATF4, 10 nM	105
sgRNA knockout: sgATF4, 100 nM	114
sgRNA knockout: sgATF4, 1000 nM	121
sgRNA knockout: sgATF4, 10000 nM	59.4
sgRNA knockout: sgATF6, 10 nM	87.4
sgRNA knockout: sgATF6, 100 nM	107
sgRNA knockout: sgATF6, 1000 nM	96.5
sgRNA knockout: sgATF6, 10000 nM	47
sgRNA knockout: sgATG7, 10 nM	91.4
sgRNA knockout: sgATG7, 100 nM	112
sgRNA knockout: sgATG7, 1000 nM	108
sgRNA knockout: sgATG7, 10000 nM	50.8
sgRNA knockout: sgERN1, 10 nM	95.9
sgRNA knockout: sgERN1, 100 nM	101
sgRNA knockout: sgERN1, 1000 nM	109
sgRNA knockout: sgERN1, 10000 nM	53.2
sgRNA knockout: sgHSF1, 10 nM	96
sgRNA knockout: sgHSF1, 100 nM	106
sgRNA knockout: sgHSF1, 1000 nM	117
sgRNA knockout: sgHSF1, 10000 nM	50.6
sgRNA knockout: sgHSF2, 10 nM	79.6
sgRNA knockout: sgHSF2, 100 nM	111
sgRNA knockout: sgHSF2, 1000 nM	107
sgRNA knockout: sgHSF2, 10000 nM	54.9
sgRNA knockout: sgKEAP1, 10 nM	92.5
sgRNA knockout: sgKEAP1, 100 nM	101
sgRNA knockout: sgKEAP1, 1000 nM	108
sgRNA knockout: sgKEAP1, 10000 nM	43.1
sgRNA knockout: sgNFE2L2, 10 nM	92.9
sgRNA knockout: sgNFE2L2, 100 nM	103
sgRNA knockout: sgNFE2L2, 1000 nM	100.7
sgRNA knockout: sgNFE2L2, 10000 nM	52.1
sgRNA knockout: sgSLC35F2, 10 nM	92.6
sgRNA knockout: sgSLC35F2, 100 nM	110
sgRNA knockout: sgSLC35F2, 1000 nM	104
sgRNA knockout: sgSLC35F2, 10000 nM	41.5
sgRNA knockout: sgXBP1, 10 nM	89.7
sgRNA knockout: sgXBP1, 100 nM	88
sgRNA knockout: sgXBP1, 1000 nM	111
sgRNA knockout: sgXBP1, 10000 nM	51.9

C[C@]1(O)C[C@@H](c2nc(-c3ccc4ccc(-c5ccccc5)nc4c3)c3c(N)nccn32)C1 [Linsitinib]
Settings	relative cell number
sgRNA knockout: sgATF3, 10 nM	97.3
sgRNA knockout: sgATF3, 100 nM	97.7
sgRNA knockout: sgATF3, 1000 nM	104
sgRNA knockout: sgATF3, 10000 nM	92.4
sgRNA knockout: sgATF4, 10 nM	103
sgRNA knockout: sgATF4, 100 nM	110
sgRNA knockout: sgATF4, 1000 nM	88.7
sgRNA knockout: sgATF4, 10000 nM	108
sgRNA knockout: sgATF6, 10 nM	90.3
sgRNA knockout: sgATF6, 100 nM	99.4
sgRNA knockout: sgATF6, 1000 nM	96.4
sgRNA knockout: sgATF6, 10000 nM	93.7
sgRNA knockout: sgATG7, 10 nM	97.81
sgRNA knockout: sgATG7, 100 nM	105
sgRNA knockout: sgATG7, 1000 nM	97.7
sgRNA knockout: sgATG7, 10000 nM	92.5
sgRNA knockout: sgERN1, 10 nM	89.5
sgRNA knockout: sgERN1, 100 nM	92.2
sgRNA knockout: sgERN1, 1000 nM	98.6
sgRNA knockout: sgERN1, 10000 nM	97.8
sgRNA knockout: sgHSF1, 10 nM	93.1
sgRNA knockout: sgHSF1, 100 nM	104
sgRNA knockout: sgHSF1, 1000 nM	86.6
sgRNA knockout: sgHSF1, 10000 nM	95.2
sgRNA knockout: sgHSF2, 10 nM	85.1
sgRNA knockout: sgHSF2, 100 nM	96.4
sgRNA knockout: sgHSF2, 1000 nM	112
sgRNA knockout: sgHSF2, 10000 nM	105
sgRNA knockout: sgKEAP1, 10 nM	88.6
sgRNA knockout: sgKEAP1, 100 nM	101
sgRNA knockout: sgKEAP1, 1000 nM	89
sgRNA knockout: sgKEAP1, 10000 nM	85.4
sgRNA knockout: sgNFE2L2, 10 nM	106
sgRNA knockout: sgNFE2L2, 100 nM	120
sgRNA knockout: sgNFE2L2, 1000 nM	99
sgRNA knockout: sgNFE2L2, 10000 nM	110
sgRNA knockout: sgSLC35F2, 10 nM	94.1
sgRNA knockout: sgSLC35F2, 100 nM	97.2
sgRNA knockout: sgSLC35F2, 1000 nM	95.7
sgRNA knockout: sgSLC35F2, 10000 nM	87.4
sgRNA knockout: sgXBP1, 10 nM	109
sgRNA knockout: sgXBP1, 100 nM	106
sgRNA knockout: sgXBP1, 1000 nM	94.5
sgRNA knockout: sgXBP1, 10000 nM	97.5
